From patent US20110087037A1, “SYNTHESIS OF RING B ABEO-STEROLS AS NOVEL INHIBITORS OF MYCOBACTERIUM TUBERCULOSIS” (priority 2007, published 2011)
Some of these results come from one statement about several compounds together. At least one structure is not confirmed: it was looked up by name or label, or the drawing left a doubt.

Tested on: VERO cells (ATCC CCL-81)
Assay: Cytotoxicity against VERO cells
Assay type: cell-based

With C=C(CC[C@@H](C)[C@H]1CC[C@H]2[C@@H]3CC=C4C[C@@H](O)CC[C@]4(C)[C@H]3CC[C@]12C)C(C)C [Compound 1] the “Cyto-toxicity IC50” value was greater than 128 µg/mL.
